Measured values taken from the supplement of paper PMC10849652.
This is one part of the list.

The chains behind the UniProt entries cited, without tags or fusion partners. Where a name states a change or a piece, a line headed by the entry shows the natural chain unless it says otherwise.
UniProt O00148, whole entry, looked up: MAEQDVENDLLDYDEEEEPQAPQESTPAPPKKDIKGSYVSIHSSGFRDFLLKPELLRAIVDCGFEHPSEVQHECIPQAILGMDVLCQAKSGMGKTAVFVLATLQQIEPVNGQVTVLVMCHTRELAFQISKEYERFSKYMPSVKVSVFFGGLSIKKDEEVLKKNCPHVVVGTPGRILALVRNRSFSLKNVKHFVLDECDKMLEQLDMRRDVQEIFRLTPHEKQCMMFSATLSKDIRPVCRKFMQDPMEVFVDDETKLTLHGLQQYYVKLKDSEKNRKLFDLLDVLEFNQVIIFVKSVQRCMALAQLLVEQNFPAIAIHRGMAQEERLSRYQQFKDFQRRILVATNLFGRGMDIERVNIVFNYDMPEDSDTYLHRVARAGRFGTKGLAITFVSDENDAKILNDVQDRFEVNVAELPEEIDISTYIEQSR
UniProt Q86SQ9: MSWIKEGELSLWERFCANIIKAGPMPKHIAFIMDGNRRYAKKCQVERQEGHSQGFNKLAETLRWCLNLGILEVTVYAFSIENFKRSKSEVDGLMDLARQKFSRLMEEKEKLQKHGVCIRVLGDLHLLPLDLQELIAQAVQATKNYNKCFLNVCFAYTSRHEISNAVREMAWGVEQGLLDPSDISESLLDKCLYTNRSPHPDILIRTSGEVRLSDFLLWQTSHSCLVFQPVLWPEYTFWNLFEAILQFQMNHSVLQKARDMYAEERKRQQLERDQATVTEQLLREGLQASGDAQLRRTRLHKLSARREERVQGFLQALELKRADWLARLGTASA
UniProt Q16854: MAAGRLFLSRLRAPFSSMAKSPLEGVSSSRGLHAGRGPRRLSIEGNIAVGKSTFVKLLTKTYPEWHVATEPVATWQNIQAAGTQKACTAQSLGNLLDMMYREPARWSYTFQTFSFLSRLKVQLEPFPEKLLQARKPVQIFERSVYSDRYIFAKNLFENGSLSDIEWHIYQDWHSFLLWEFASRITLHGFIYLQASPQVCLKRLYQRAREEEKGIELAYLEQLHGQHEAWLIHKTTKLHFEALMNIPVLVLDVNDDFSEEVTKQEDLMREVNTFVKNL
UniProt Q9GZR7: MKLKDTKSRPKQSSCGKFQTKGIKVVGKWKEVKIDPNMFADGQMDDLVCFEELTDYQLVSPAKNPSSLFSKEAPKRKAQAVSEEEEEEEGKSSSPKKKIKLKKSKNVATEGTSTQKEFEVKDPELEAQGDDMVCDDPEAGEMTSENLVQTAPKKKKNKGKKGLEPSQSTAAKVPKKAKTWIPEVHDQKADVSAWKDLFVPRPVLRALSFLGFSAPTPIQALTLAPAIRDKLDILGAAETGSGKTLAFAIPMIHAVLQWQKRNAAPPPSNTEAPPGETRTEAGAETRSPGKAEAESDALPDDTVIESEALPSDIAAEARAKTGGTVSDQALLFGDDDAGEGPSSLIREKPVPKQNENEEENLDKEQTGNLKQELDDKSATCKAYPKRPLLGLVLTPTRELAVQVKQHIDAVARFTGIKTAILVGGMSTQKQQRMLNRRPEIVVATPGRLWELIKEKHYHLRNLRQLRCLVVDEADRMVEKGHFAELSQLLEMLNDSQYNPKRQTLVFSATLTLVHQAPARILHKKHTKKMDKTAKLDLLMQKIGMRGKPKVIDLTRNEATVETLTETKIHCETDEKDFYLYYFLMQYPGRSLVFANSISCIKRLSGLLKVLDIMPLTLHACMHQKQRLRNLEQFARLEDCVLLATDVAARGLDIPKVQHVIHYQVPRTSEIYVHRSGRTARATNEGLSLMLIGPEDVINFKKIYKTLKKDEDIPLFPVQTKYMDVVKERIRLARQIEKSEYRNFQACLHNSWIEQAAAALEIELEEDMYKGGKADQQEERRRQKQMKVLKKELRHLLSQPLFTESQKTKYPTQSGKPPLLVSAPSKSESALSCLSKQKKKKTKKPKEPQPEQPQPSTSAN
UniProt Q8TE73: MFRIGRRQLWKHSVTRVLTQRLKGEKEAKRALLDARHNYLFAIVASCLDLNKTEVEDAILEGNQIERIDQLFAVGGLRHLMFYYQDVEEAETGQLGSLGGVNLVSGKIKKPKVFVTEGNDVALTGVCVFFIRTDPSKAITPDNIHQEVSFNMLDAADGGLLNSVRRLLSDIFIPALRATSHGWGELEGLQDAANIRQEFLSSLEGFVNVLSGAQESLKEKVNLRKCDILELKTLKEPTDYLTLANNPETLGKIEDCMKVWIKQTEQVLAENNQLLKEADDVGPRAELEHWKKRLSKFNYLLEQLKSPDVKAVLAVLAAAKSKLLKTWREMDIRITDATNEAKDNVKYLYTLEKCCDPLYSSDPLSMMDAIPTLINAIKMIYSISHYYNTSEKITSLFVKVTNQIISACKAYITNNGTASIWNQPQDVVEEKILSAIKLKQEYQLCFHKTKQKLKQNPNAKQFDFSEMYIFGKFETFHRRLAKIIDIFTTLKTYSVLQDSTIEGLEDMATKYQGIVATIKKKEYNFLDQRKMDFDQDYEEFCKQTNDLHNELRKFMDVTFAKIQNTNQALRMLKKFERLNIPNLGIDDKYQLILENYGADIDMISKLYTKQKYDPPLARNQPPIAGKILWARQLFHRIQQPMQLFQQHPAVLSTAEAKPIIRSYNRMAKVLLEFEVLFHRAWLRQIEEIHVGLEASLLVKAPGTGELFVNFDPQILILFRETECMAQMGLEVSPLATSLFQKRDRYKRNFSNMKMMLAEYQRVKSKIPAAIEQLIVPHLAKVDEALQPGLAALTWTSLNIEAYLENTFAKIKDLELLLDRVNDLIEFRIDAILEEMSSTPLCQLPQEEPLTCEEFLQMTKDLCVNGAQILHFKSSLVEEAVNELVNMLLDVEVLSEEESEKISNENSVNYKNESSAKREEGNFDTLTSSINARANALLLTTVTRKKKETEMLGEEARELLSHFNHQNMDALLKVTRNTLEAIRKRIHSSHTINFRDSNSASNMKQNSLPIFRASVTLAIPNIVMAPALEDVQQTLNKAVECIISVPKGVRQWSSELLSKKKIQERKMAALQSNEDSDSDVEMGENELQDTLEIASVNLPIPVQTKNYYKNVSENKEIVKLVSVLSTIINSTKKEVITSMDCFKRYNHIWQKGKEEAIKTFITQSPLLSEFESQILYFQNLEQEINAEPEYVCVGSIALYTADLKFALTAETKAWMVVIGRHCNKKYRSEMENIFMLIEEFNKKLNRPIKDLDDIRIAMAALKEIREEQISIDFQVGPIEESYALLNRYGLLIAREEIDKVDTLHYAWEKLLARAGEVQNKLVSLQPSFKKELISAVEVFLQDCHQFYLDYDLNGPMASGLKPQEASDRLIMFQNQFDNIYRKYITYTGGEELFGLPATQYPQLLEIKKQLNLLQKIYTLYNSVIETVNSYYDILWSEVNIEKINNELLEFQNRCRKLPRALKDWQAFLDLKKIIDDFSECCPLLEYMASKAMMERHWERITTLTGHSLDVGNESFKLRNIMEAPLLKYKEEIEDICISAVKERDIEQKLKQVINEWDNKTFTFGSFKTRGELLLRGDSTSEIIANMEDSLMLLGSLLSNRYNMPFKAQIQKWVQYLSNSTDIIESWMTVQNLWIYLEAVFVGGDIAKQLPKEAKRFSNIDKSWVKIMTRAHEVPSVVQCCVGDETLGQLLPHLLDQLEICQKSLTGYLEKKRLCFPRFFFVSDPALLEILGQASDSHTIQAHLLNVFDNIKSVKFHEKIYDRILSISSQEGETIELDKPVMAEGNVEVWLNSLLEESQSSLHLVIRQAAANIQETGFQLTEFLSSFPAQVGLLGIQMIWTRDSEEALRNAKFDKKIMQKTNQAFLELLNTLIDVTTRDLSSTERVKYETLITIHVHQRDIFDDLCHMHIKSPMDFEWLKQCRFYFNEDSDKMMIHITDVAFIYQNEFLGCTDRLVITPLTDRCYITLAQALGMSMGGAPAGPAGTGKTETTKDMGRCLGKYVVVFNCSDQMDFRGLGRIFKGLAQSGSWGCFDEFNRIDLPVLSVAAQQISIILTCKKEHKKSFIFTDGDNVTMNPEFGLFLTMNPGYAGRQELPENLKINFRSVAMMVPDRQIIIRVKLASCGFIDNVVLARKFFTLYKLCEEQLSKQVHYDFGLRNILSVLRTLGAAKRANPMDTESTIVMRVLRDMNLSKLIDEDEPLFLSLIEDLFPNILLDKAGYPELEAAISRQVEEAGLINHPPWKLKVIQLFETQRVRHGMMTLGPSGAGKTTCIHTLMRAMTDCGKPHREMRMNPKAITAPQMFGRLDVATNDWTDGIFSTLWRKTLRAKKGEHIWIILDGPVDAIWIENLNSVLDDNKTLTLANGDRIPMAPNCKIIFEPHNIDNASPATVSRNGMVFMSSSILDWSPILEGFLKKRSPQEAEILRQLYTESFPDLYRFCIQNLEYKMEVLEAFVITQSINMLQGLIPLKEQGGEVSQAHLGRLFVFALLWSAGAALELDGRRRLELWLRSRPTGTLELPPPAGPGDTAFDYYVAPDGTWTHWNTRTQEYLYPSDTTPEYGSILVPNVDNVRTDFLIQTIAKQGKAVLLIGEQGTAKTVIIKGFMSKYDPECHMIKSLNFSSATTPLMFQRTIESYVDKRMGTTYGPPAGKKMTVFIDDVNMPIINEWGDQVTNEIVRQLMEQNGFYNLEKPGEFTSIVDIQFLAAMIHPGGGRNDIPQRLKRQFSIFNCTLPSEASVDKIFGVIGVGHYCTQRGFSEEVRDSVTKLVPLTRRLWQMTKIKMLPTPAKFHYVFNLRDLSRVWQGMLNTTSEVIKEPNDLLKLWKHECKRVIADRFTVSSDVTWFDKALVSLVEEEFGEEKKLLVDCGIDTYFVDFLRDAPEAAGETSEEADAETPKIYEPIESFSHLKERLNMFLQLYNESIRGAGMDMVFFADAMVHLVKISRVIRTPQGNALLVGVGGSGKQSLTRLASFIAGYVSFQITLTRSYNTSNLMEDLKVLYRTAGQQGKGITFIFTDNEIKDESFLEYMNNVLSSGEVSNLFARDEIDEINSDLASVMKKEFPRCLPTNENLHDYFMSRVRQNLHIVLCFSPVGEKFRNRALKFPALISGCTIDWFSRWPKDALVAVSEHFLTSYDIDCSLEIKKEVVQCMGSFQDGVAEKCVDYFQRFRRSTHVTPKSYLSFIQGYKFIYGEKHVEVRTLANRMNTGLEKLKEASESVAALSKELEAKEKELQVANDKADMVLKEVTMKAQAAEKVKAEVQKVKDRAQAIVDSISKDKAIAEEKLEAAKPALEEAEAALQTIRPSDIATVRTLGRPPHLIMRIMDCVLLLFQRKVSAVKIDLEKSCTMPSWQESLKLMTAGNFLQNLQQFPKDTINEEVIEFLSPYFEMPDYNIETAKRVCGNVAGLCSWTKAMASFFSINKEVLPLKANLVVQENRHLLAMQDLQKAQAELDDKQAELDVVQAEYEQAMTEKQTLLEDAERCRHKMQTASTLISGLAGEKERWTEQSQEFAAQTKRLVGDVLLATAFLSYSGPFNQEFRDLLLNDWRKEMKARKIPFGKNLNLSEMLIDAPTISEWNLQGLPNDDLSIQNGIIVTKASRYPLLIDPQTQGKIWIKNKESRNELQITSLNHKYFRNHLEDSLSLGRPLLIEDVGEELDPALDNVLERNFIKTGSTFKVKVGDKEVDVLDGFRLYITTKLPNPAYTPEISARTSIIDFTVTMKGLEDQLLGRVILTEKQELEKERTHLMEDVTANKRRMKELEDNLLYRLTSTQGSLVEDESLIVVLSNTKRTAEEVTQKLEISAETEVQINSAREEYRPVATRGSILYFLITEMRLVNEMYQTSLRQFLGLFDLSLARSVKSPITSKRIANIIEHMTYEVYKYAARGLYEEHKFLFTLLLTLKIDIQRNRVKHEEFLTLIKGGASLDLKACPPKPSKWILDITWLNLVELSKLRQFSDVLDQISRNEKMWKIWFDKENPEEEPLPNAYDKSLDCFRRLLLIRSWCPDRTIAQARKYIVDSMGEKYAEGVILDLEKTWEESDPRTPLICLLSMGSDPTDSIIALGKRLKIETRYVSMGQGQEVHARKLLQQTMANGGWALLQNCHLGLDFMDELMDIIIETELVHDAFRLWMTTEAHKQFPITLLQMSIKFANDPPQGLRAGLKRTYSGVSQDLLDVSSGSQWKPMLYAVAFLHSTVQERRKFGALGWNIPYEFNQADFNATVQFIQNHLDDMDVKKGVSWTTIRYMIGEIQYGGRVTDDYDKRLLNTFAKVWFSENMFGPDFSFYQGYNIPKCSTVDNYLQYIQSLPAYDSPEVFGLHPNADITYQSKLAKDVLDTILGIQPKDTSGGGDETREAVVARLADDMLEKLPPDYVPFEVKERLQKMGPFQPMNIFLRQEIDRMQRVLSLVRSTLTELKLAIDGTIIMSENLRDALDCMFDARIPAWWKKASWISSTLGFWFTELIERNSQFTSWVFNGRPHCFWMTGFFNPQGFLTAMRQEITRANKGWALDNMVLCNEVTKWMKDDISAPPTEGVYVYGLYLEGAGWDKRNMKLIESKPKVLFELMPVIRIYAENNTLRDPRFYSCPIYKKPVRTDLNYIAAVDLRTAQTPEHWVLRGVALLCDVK

Columns and labels:
Assay in all cases: log2 fold change, soluble protein after heating vs DMSO (PISA); higher = thermal stabilisation; K562 cells, 10 uM, 30 min; active = over 0.2 and 3.5 SD of the protein, either way, in both replicates (recomputed)
[1] = compound: COC1=CC=C(C=C1)CN2C=CC3=C2C=C(C=C3)C(=O)NO
Outline: (§1)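 Aliquots of K562 cells (2×10^6 cells/mL) treated with 10 μM compound for 30 min were heated for 3 min over 48°C-58°C. After pooling and extraction in PBS with 0.5% NP-40 at 4°C, soluble protein from a 21,000xg, 90 min spin was quantified by TMTpro 16plex LC-MS/MS with channel sums equalised. Thermal stability is expressed against control samples, from duplicates, as a log2 fold change.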

[2] = compound: CON(C)C(=O)N1N=C(c2cc(F)ccc2F)S[C@@]1(CCCN)c1ccccc1 [filanesib]
Outline: as §1

[3] = compound: CO[C@H]1C[C@@H]2CC[C@@H](C)[C@@](O)(O2)C(=O)C(=O)N2CCCC[C@H]2C(=O)O[C@H]([C@H](C)C[C@@H]2CC[C@H](n3cnnn3)[C@H](OC)C2)CC(=O)[C@H](C)/C=C(\C)[C@@H](O)[C@@H](OC)C(=O)[C@H](C)C[C@H](C)/C=C/C=C/C=C/1C [zotarolimus]
Outline: as §1

[4] = compound: COc1cc(C(=O)O)ccc1NC(=O)[C@@H]1N[C@@H](CC(C)(C)C)[C@](C#N)(c2ccc(Cl)cc2F)[C@H]1c1cccc(Cl)c1F [idasanutlin]
Outline: as §1

[5] = compound: COc1cc(Nc2ncc3c(n2)-c2ccc(Cl)cc2C(c2c(F)cccc2OC)=NC3)ccc1C(=O)O [alisertib]
Outline: as §1

[6] = compound: COc1cc2nc(-c3cc(F)ccc3O)nc(N[C@@H]3CNC[C@H]3C(C)(C)O)c2cc1OC
Outline: as §1

[7] = compound: COc1cc2ncnc(Nc3ccc(F)c(Cl)c3)c2cc1OCCCN1CCOCC1 [gefitinib]
Outline: as §1

[8] = compound: COc1cccc2cc(-c3nc([C@H]4CC[C@H](C(=O)O)CC4)n4ncnc(N)c34)[nH]c12
Outline: as §1

[9] = compound: CS(=O)(=O)CCNCc1ccc(-c2ccc3ncnc(Nc4ccc(OCc5cccc(F)c5)c(Cl)c4)c3c2)o1 [lapatinib]
Outline: as §1

[10] = compound: CS(=O)(=O)N1CCN(Cc2cc3nc(-c4cccc5[nH]ncc45)nc(N4CCOCC4)c3s2)CC1 [pictilisib]
Outline: as §1

Measured: log2 fold change

DERA (UniProt Q9Y315)
inactive: [1] -0.015 | [2] 0.062 | [3] -0.039 | [4] -0.008 | [5] -0.087 | [6] 0.019 | [7] -0.007 | [8] 0.031 | [9] 0.005 | [10] -0.001

DENR (UniProt O43583)
inactive: [1] -0.035 | [2] -0.015 | [3] -0.015 | [4] 0.009 | [5] -0.088 | [6] -0.025 | [7] 0.015 | [8] -0.03 | [9] -0.002 | [10] 0.028

DDX39A (UniProt O00148)
inactive: [1] 0.135 | [2] -0.021 | [3] -0.017 | [4] -0.093 | [5] 0.066 | [6] -0.16 | [7] -0.015 | [8] -0.028 | [9] -0.007 | [10] 0.012

DDX3X (UniProt O00571)
inactive: [1] 0.034 | [2] 0.806 | [3] 0.043 | [4] 0.441 | [5] 0.113 | [6] -0.075 | [7] 0.047 | [8] -0.529 | [9] 0.133 | [10] -0.055

DENND4A isoform 2 (UniProt Q7Z401)
inactive: [1] -0.249 | [2] 0.095 | [3] -0.258 | [4] 0.055 | [5] 1.17 | [6] -0.052 | [7] -0.069 | [8] -0.384 | [9] 0.145 | [10] -0.189

DHX57 (UniProt Q6P158)
inactive: [1] -0.001 | [2] 0.172 | [3] 0.014 | [4] 0.129 | [5] -0.184 | [6] -0.02 | [7] -0.048 | [8] -0.153 | [9] 0.097 | [10] -0.071

DDAH2 (UniProt O95865)
inactive: [1] -0.085 | [2] -0.015 | [3] -0.014 | [4] 0.004 | [5] -0.009 | [6] 0.038 | [7] 0.021 | [8] 0.037 | [9] -0.042 | [10] 0.035

DDX6 (UniProt P26196)
inactive: [1] -0.022 | [2] 0.053 | [3] -0.027 | [4] -0.024 | [5] -0.048 | [6] 0.046 | [7] -0.015 | [8] -0.059 | [9] -0.001 | [10] -0.004

DHFR (UniProt P00374)
inactive: [1] -0.057 | [2] 0.089 | [3] 0.065 | [4] -0.051 | [5] -0.08 | [6] 0.109 | [7] -0.021 | [8] -0.05 | [9] -0.061 | [10] 0.039

DERL2 (UniProt Q9GZP9)
inactive: [1] 0.181 | [2] 0.083 | [3] 0.081 | [4] -0.142 | [5] 0.31 | [6] 0.038 | [7] 0.021 | [8] -0.065 | [9] -0.04 | [10] 0.332

DHDDS isoform 2 (UniProt Q86SQ9)
inactive: [1] 0.038 | [2] 0.066 | [3] -0.009 | [4] 0.002 | [5] -0.036 | [6] 0.001 | [7] -0.001 | [8] -0.001 | [9] -0.005 | [10] 0.024

DGUOK (UniProt Q16854)
inactive: [1] -0.022 | [2] -0.032 | [3] 0.005 | [4] -0.04 | [5] -0.054 | [6] 0.057 | [7] 0.004 | [8] 0.021 | [9] -0.018 | [10] 0.007

DLG3 (UniProt Q92796)
inactive: [1] -0.112 | [2] 0.06 | [3] -0.03 | [4] 0.013 | [5] 0.096 | [6] 0.003 | [7] 0.058 | [8] -0.074 | [9] -0.121 | [10] 0.007

DIABLO (UniProt Q9NR28)
inactive: [1] -0.026 | [2] -0.06 | [3] 0.055 | [4] 0.014 | [5] -0.106 | [6] 0.007 | [7] 0.016 | [8] 0.058 | [9] -0.003 | [10] -0.06

DMAC2L (UniProt Q99766)
inactive: [1] -0.009 | [2] -0.012 | [3] 0 | [4] -0.04 | [5] -0.068 | [6] 0.133 | [7] -0.02 | [8] 0.024 | [9] 0.021 | [10] 0.005

DDX11 (UniProt Q96FC9)
inactive: [1] -0.069 | [2] 0.144 | [4] -0.05 | [5] 0.088 | [6] 0.047 | [7] -0.009 | [9] -0.045
active: [8] 0.437

DDB1 (UniProt Q16531)
inactive: [1] -0.024 | [2] -0.015 | [3] -0.017 | [4] -0.029 | [5] -0.06 | [6] 0.006 | [7] -0.012 | [8] 0.061 | [9] -0.022 | [10] 0.025

DDX21 (UniProt Q9NR30)
inactive: [1] 0.001 | [2] 0.233 | [3] -0.01 | [4] 0.283 | [5] -0.098 | [6] 0.034 | [7] -0.046 | [8] -0.101 | [9] 0.121 | [10] -0.105

DIP2A (UniProt Q14689)
inactive: [1] -0.097 | [2] 0.028 | [3] -0.018 | [4] -0.047 | [5] 0.357 | [6] -0.098 | [7] 0.008 | [8] -0.004 | [9] -0.047 | [10] 0.103

DNAAF5 (UniProt Q86Y56)
inactive: [1] 0.022 | [2] 0.307 | [3] 0.184 | [4] 0.234 | [5] -0.187 | [6] -0.051 | [8] -0.307 | [9] 0.097 | [10] -0.053

DFFB (UniProt O76075)
inactive: [1] -0.016 | [2] -0.141 | [3] -0.093 | [4] -0.03 | [5] -0.004 | [6] 0.06 | [7] -0.054 | [8] 0.041 | [9] -0.015 | [10] -0.074

DENND6A (UniProt Q8IWF6)
inactive: [1] -0.008 | [2] 0.042 | [3] 0.03 | [4] -0.032 | [5] -0.125 | [6] 0.057 | [7] -0.104 | [8] 0.1 | [9] 0.074 | [10] 0.28

DDX24 (UniProt Q9GZR7)
inactive: [1] -0.31 | [2] 0.276 | [3] 0.042 | [4] 0.21 | [5] -0.101 | [6] -0.029 | [8] 0.088 | [9] 0.101 | [10] -0.043

DESI2 (UniProt Q9BSY9)
inactive: [1] 0.018 | [2] 0.061 | [6] -0.11 | [7] 0.054 | [9] -0.043

DNAH5 (UniProt Q8TE73)
active: [9] -0.484
inactive: [1] -0.147 | [2] -0.061 | [3] 0.024 | [5] 0.011 | [6] -0.042 | [7] 0.046 | [8] 0.058 | [10] -0.001

Copied from the listing (six entries):
DDB1 (UniProt Q16531)
inactive: [1] -0.024 | [2] -0.015 | [3] -0.017 | [4] -0.029 | [5] -0.06 | [6] 0.006 | [7] -0.012 | [8] 0.061 | [9] -0.022 | [10] 0.025

DDX21 (UniProt Q9NR30)
inactive: [1] 0.001 | [2] 0.233 | [3] -0.01 | [4] 0.283 | [5] -0.098 | [6] 0.034 | [7] -0.046 | [8] -0.101 | [9] 0.121 | [10] -0.105

DIP2A (UniProt Q14689)
inactive: [1] -0.097 | [2] 0.028 | [3] -0.018 | [4] -0.047 | [5] 0.357 | [6] -0.098 | [7] 0.008 | [8] -0.004 | [9] -0.047 | [10] 0.103

DNAAF5 (UniProt Q86Y56)
inactive: [1] 0.022 | [2] 0.307 | [3] 0.184 | [4] 0.234 | [5] -0.187 | [6] -0.051 | [8] -0.307 | [9] 0.097 | [10] -0.053

DFFB (UniProt O76075)
inactive: [1] -0.016 | [2] -0.141 | [3] -0.093 | [4] -0.03 | [5] -0.004 | [6] 0.06 | [7] -0.054 | [8] 0.041 | [9] -0.015 | [10] -0.074

DENND6A (UniProt Q8IWF6)
inactive: [1] -0.008 | [2] 0.042 | [3] 0.03 | [4] -0.032 | [5] -0.125 | [6] 0.057 | [7] -0.104 | [8] 0.1 | [9] 0.074 | [10] 0.28

More entries follow.

DHX38 (UniProt Q92620)
inactive: [1] -0.024 | [2] -0.005 | [3] -0.015 | [4] -0.016 | [5] -0.044 | [6] 0.044 | [7] -0.024 | [8] 0.026 | [9] 0.01 | [10] 0.055

DHRS4L1 (UniProt P0CG22)
inactive: [1] 0.017 | [2] -0.061 | [3] -0.017 | [4] -0.096 | [5] 0.051 | [6] 0.023 | [7] 0.032 | [8] 0.045 | [9] -0.069 | [10] 0.013

DDRGK1 (UniProt Q96HY6)
inactive: [1] 0.005 | [2] 0.005 | [3] -0.034 | [4] 0.024 | [5] -0.068 | [6] 0.048 | [7] 0 | [8] -0.002 | [9] 0.002 | [10] -0.011
